Values quoted from earlier work as cited in patent US12162866B1, “Crystal form of pyrazolyl-amino-pyrimidinyl derivative, and preparation method therefor and use thereof” (LYNK PHARMACEUTICALS CO., LTD., priority 2023, dated 2024).
At least one structure is not confirmed: it was looked up by name or label, or the drawing left a doubt.

Legend:
[1] = phase III, treatment of AD; cited from earlier work
[2] = phase II and phase III, treatment of AD; cited from earlier work

C[C@H]1CN(C(=O)CC#N)[C@]12CCN(c1ncnc3[nH]ccc13)C2 [Delgocitinib]
clinical score of patients [1]: significantly improves the clinical score

N#CC[C@H](C1CCCC1)n1cc(-c2ncnc3[nH]ccc23)cn1 [Ruxolitinib]
antipruritic and anti-inflammatory effects [2]: rapid antipruritic and anti-inflammatory effects
